Here are results for four molecules from PubChem BioAssay AID192 (DTP/NCI, 2004).

The list does not hold the whole screen: it is rich in T/C values a quarter to a half above the control, in often repeated tests (any T/C) and in doses without a T/C. Further doses and runs are listed elsewhere. T/C: endpoint of the treated group in % of that of the vehicle group. Some entries give survivors of the animals treated and no T/C: the source files T/C as zero there, which appears to mark a toxic dose or a test without result, not a measured value. Some survivor counts are full or nearly so, which does not show that the dose was tolerated: the source hardly ever lists a survival T/C far under the control, and the zero likely stands for such cases as well. Survivors were counted at the toxicity check, usually on the fifth day, unless a day is given; later deaths do not show. Schedules are NCI's codes, taken here to give the interval after Q, in days (D) or hours (H), and the number of doses after X.

The subject of this assay is BDF1 mice, B16 melanoma ip, median survival T/C. Nature of the assay: NCI In Vivo Anticancer Drug Screen. Data for tumor model B16 Melanoma (intraperitoneal) in B6D2F1 (BDF1) mice. The conditions noted are these: T/C endpoint: median survival time, schedule: Q01DX009 (ip), higher T/C = longer survival. In a few lines: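 Survival or tumor size is measured after treatment of tumor-bearing mice and normalised to the vehicle-treated control group.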

[1] abbreviates: dose: 400.0 mg/kg/injection, vehicle: saline with Tween-80.

For `CCc1cnccc1C`, the survivor count (dose: 100.0 mg/kg/injection, vehicle: Klucel (hydroxypropylcellulose) (HPC)) is recorded as 6 of 10.
On to `COc1cc(O)c2c(O)c3c(c4c2c1[C@]1(C4)C(C)=CCCC1(C)C)[C@H](O)[C@@]1(O)CC(=O)C(C(N)=O)=C(O)[C@@]1(O)C3=O`, for which the survivor count runs as follows: (dose: 12.0 mg/kg/injection, vehicle: saline with Tween-80) 5 of 6; (dose: 24.0 mg/kg/injection, vehicle: saline with Tween-80) 0 of 6; (dose: 48.0 mg/kg/injection, vehicle: saline with Tween-80) 1 of 6.
For `CCC(C)NC(=O)Nc1cccc(Cl)c1C` (stereo not drawn), the survivor count under setting [1] was 9 of 10.
On to `CC(Br)C(=O)NC(C)C(=O)O` (stereo not drawn), for which the survivor count is listed as 10 of 10 (dose: 100.0 mg/kg/injection, vehicle: saline with Tween-80); 10 of 10 (dose: 200.0 mg/kg/injection, vehicle: saline with Tween-80); 10 of 10 under setting [1].
